Laboratory results taken from US20150147316A1.
Results are given in words; binding and its absence hold for the method and conditions named. A result given as binding can be weak or reduced; the word gives no strength.

Target: cynomolgus CD33 (cynomolgus)
Test: flow cytometry on cells expressing cyno CD33

binding: binds
B1: h2H12 antibody (2H12 HILG) (antibody, V domains shown)
VH: QVQLVQSGAEVKKPGASVKVSCKASGYTFTNYDINWVRQAPGQGLEWIGWIYPGDGSTKYNEKFKAKATLTADTSTSTAYMELRSLRSDDTAVYYCASGYEDAMDYWGQGTTVTVSS
VL: DIQMTQSPSSLSASVGDRVTINCKASQDINSYLSWFQQKPGKAPKTLIYRANRLVDGVPSRFSGSGSGQDYTLTISSLQPEDFATYYCLQYDEFPLTFGGGTKVEIK
